PubChem BioAssay AID1259308, NCATS – 2017
In all, the deposit lists about 59,000 reagents; shown is an unselected part. Of all reagents, about 1,510 (2.6%) got an active call. 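Calls use total luciferase alone and ignore viability, so some active siRNAs may act by altering cell number.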 A number with no mark means an inactive call. The numbers tell different reagents against one gene apart.

Aim: 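Knock-downs that increase output of a recombinant reporter protein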 (primary screen)
Cell system: human HEK293 embryonic kidney cells stably expressing firefly luciferase (HEK-CMV-Luc2-Hygro)
Reagents: single siRNA against human genes, 0.8 pmol siRNA per well
Duration: 72 h
Detection: 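Reporter luminescence and viable-cell signal on separate replicate plates, given as percent of non-targeting control and median/MAD z-scores, plus per-cell luciferase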
Reading the numbers: total luciferase, z-score and total luciferase, % of control: higher = more reporter protein produced; luciferase per cell, z-score: higher = more reporter output per viable cell; viable cells, % of control: higher = more viable cells
Active means: 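Active when the median/MAD z-score for overall luciferase is greater than 3; a gene was taken forward for validation with new siRNAs if at least two of its three siRNAs passed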
Calls: active = raised luciferase; inactive = no rise

gene symbol	reagent no.	total luciferase, z-score	total luciferase, % of control	luciferase per cell, z-score	viable cells, % of control
PLXNB3	1	4.24 (active)	166	4.47	57.2
PLXNB3	2	0.447	90.8	-0.114	105
PLXNB3	3	1.52	112	0.441	112
AS3MT	1	-0.174	78.4	-0.455	98.8
AS3MT	2	-1.34	55.3	-1.27	86.3
AS3MT	3	-2.12	39.8	-1.9	73.4
MTF1	1	1.11	104	0.464	103
MTF1	2	2.48	131	1.53	98
MTF1	3	0.808	98	0.482	96.4
PDCD7	1	0.0867	83.6	-0.356	103
PDCD7	2	-0.408	73.8	-0.348	90.3
PDCD7	3	0.11	84.1	0.149	90.3
TREH	1	0.475	91.3	0.482	89.9
TREH	2	1.02	102	1.51	76.7
TREH	3	0.0815	83.5	-0.128	96.5

Sorted by “total luciferase, z-score” (lowest first): 2 of the entries above.
gene symbol	reagent no.	total luciferase, z-score	total luciferase, % of control	luciferase per cell, z-score	viable cells, % of control
PDCD7	3	0.11	84.1	0.149	90.3
TREH	1	0.475	91.3	0.482	89.9

The listing continues:
gene symbol	reagent no.	total luciferase, z-score	total luciferase, % of control	luciferase per cell, z-score	viable cells, % of control
GIMAP2	1	-0.143	79	0.161	84.7
GIMAP2	2	0.833	98.5	0.566	94.8
GIMAP2	3	-0.128	79.3	-0.091	90.8
CIMIP2A	1	1.51	112	1.56	82.9
CIMIP2A	2	0.463	91.1	1.15	75.3
CIMIP2A	3	1.58	113	1.29	90.2
C2CD4C	1	0.556	92.9	1.29	74
C2CD4C	2	-1.23	57.5	-1.21	88.3
C2CD4C	3	-1.41	53.9	-0.205	63.6
CCDC88C	1	-0.871	64.6	-0.627	85.1
CCDC88C	2	-1.07	60.7	-1.08	90.1
CCDC88C	3	0.0568	83	0.779	75.6
TDG	1	2.06	123	2.28	75.3
TDG	2	-0.0309	81.3	-0.0989	93.2
TDG	3	3.08 (active)	143	3.14	70.1
EIF3B	1	-2.55	31.2	-3.01	76.9
EIF3B	2	-2.23	37.5	-2.39	78.7
EIF3B	3	-2.29	36.4	-1.62	62.4
HOXD9	1	-0.226	77.4	0.227	81.5
HOXD9	2	0.176	85.4	1.12	71.1
HOXD9	3	-1.23	57.4	-1.31	90.6
SGSM3	1	0.2	85.9	-0.0469	97.1
SGSM3	2	0.0207	82.3	1.29	65.5
SGSM3	3	0.274	87.3	-0.242	104
